Primary screen of a compound library

Data taken from ChEMBL document CHEMBL3988442, “University of Dundee, Small-Polar-MMV Screening Library” (2021).

T. brucei: 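Whole-parasite assay of Trypanosoma brucei over 72 hours; the read-out is not stated. Tested at 30 µM. Higher reads as stronger inhibition (inferred: compounds with an IC50 in retests scored well above the rest). Values scatter widely below zero; nearly all retest evidence comes from the higher of the two concentrations used. Of about 64,000 compounds tested this way, about 940 (1.5%) reached 50% or more in at least one test.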
Leishmania in macrophages: 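Cell assay of Leishmania donovani living inside macrophages; the read-out is not stated. Tested at 30 µM. Direction is inferred from retests: higher values go with stronger inhibition. Of about 69,000 compounds tested this way, about 1,000 (1.5%) reached 50% or more in at least one test.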

Values are the deposited “Percent Effect”, in %.
How 0% and 100% were set is not recorded. Most values in the screen are low, and negative values occur.
The compounds are a random part of those screened.
Two or more numbers in one place are separate tests of the same structure; such repeats can differ widely.
A dash means the value is not listed here; it may have been measured.

| Compound | T. brucei | Leishmania in macrophages |
|---|---|---|
| `Cn1ccnc1CN(CCO)C(=O)c1cnc2ccccc2c1` | 5.088% | 42.47% |
| `O=C(NCC(O)c1ccc(Cl)s1)c1ccoc1` (stereo unspecified) | -59.7% | 17.03% |
| `CNC(=O)c1cccnc1NCc1ccc(Cn2ccnc2)cc1` | -43.77% | -51.05% |
| `O=C(O)CN1CCOCC(Cc2ccc(Cl)cc2)C1` (stereo unspecified) | -23.1% | 12.75% |
| `CC(C)(O)CN1CCN(C(=O)c2cccn2Cc2ccncc2)CC1` | 3.098% | 14.16% |
| `CCC(CC)C(=O)N1CCc2nc(N3CCCC3)nc(C)c2CC1` | -41.54% | 10.18% |
| `Cc1ccc2c(n1)N(Cc1cccnc1)CCN(C(=O)C1CCC1)C2.O=C(O)C(F)(F)F.O=C(O)C(F)(F)F` | -15.83% | 18.55% |
| `COc1cccc(S(=O)(=O)N2C[C@H](OC)[C@]3(CCCO3)C2)c1` | - | 24% |
| `O=C(NC[C@@H]1CCCO1)c1cc(Br)cnc1N1CCCCC1` | 17.89% | 41.77% |
| `CC(C)CC(=O)N1CCN(C(=O)NC(C)C)CC2(CC(=O)N(C)C2)C1` (stereo unspecified) | -12.95% | -8.176% |
| `NC(=O)C1CCCN1Cc1nccn1CC(F)(F)F` (stereo unspecified) | -38.45% | 0.04221% |
| `CS(=O)(=O)c1ccc(OCCCN2CCc3cncnc3C2)cc1` | -26.66% | -22.13% |
| `O=C(C1CCCCC1)N1CCC(c2n[nH]c3nccnc23)CC1` | -12.48% | 5.738% & 9.984% |
| `Cl.c1cc(CNCc2cccc3c2OCCCO3)cc(Cn2cncn2)c1` | -26.24% | -16.7% |
| `Cn1cccc1C(=O)N1CCC(c2nccn2Cc2ccncc2)CC1` | 1.597% | 6.64% |
| `CCc1cc(N(C)Cc2nonc2C)nc(N(C)C)n1` | -56.67% | 26.01% |
| `CN(C)c1ncc(I)c(C2CCCCN2C)n1` (stereo unspecified) | 7.372% | -18.2% |
| `Cc1cc2cc(CNC3CCN(CC4CCOC4)CC3)oc2cc1C` (stereo unspecified) | 32.94% | 70.06% |
| `Cc1cccc(N2Cc3nc(=O)n(Cc4cccc(F)c4)n3C2=O)c1` | -2.627% | 33.46% |
| `N#CCc1ccc(OCC(=O)NS(=O)(=O)c2cccs2)cc1` | -11.3% | -28% |
| `COc1ccc(Cc2nc3c([nH]2)CC(C)(C)CNC3=O)c(OC)c1` | -27.01% | 3.517% |
| `CC(C)NCc1nc(-c2ccc3c(c2)OCO3)c[nH]1.Cl.Cl` | -43.27% | 7.709% |
| `O=C(C1CCOCC1)N1CC[C@@H](N2CCOCC2)[C@@H]1Cc1ccccc1` | 20% | 24.59% |
| `C[C@H]1CCCCN1CCCNc1nccc(-c2c[nH][nH]c2=O)n1` | -22.02% | 9.322% & 23.1% |
| `Cc1nc(C(C)C)sc1C(=O)N1CCN(C2CN3CCC2CC3)CC1` (stereo unspecified) | -14.64% | 20.97% |
| `O=C(O)C(F)(F)F.O=C(O)C(F)(F)F.[H][C@@]12CCN(Cc3cnn(C)c3)[C@]1([H])CC[C@H](COCc1cccnc1)O2` | -24.92% | 18.07% |
| `CN(Cc1ccc2c(c1)OCCO2)Cc1nc2c(cnn2C)c(=O)[nH]1` | 4.999% | 27.3% |
| `COc1ccc(-c2cn3c(n2)CO[C@@H](CNCc2ccccn2)C3)cc1` | -4.73% | 4.262% |
| `Cc1nc(C)n(CC2CCCN(CCC(=O)N3CCCCC3)C2)n1` (stereo unspecified) | 2.189% | -22.89% |
| `Cc1nc2c(c(Nc3ccccn3)n1)CN(S(C)(=O)=O)CC2` | - | -21.88% |
| `CCC(C)NC(=O)c1cc(S(N)(=O)=O)c(Br)s1` (stereo unspecified) | 4.97% | 16.32% |
| `COc1cccc2ccc(CN3CCN(c4ccncc4)CC3)nc12` | 8.294% | 12.21% |
| `CC(Cn1cccn1)NC(=O)NCCc1ccsc1` (stereo unspecified) | -35.32% | -7.576% |
| `[H][C@]12CC[C@]([H])(CN(c3ncnc4ccsc34)C1)N(C)C2=O` | -60.07% | 14.88% |
| `Cc1nc(C)c(CC(=O)Nc2nc(C)c(C)s2)c(=O)[nH]1` | - | -0.6498% |
| `Cc1cc(N2CCN(C(=O)Cc3c(C)nc(C)[nH]c3=O)CC2)cc(C)n1` | -26.24% | 4.359% |
| `Cc1csc(N2CCCN(C(=O)c3cccs3)CC2)n1` | -69.43% | -3.118% |
| `COCCNC(=O)c1cccnc1Sc1cc(OC)ccc1OC` | -6.443% | 36.68% |
| `NCC(CO)Cc1ccc(OC(F)(F)F)cc1` (stereo unspecified) | -40.47% | -8.051% |
| `Cn1cc(CCNC(=O)N2CCCC(Cc3nccn3C)C2)cn1` (stereo unspecified) | -16.17% | 21.17% |
| `Cc1cc(C)n(CC2CCCCN2CC(=O)NC2CCOCC2)n1` (stereo unspecified) | -27.69% | -36.15% |
| `CCc1nc(C(=O)N2CCN(C)c3ccccc32)c[nH]1` | -0.6439% | 19.5% |
| `CCCS(=O)(=O)c1ncc(CN2CCC(CO)CC2)n1CC1CCCO1` (stereo unspecified) | -2.588% | -11.25% |
| `CC(C)c1ccc(OCCC(=O)N2CCC(C(=O)N(C)C)CC2)cc1` | 13.62% | 22.96% |
| `O=S(=O)(Cc1ccc(Br)cc1)NCCO` | -18.42% | 18.93% |
| `O=C(c1cn(CCN2CCCCC2)nn1)N1CCCCO1` | -10.78% | 21.98% |
| `CN(Cc1ccncc1)C(CO)c1cccc(Br)c1` (stereo unspecified) | -38.26% | -36.68% |
| `Cn1cnnc1C1CCN(C(=O)CCOc2ccc(Cl)cc2)CC1` | -25.39% | -54.13% |
| `Cn1cc(NC(=O)C2CC(=O)N(c3n[nH]c4cccc(F)c34)C2)cn1` (stereo unspecified) | -17.04% | -1.752% |
| `Cn1ccc(C(=O)NC2CCC23CCN(Cc2nccs2)CC3)c1` (stereo unspecified) | -16.42% | 3.638% |
| `N#Cc1cccc(N2CC3(CCN(C(=O)c4ccncc4)C3)CC2=O)c1.O=C(O)C(F)(F)F` (stereo unspecified) | -22.52% | 25.59% |
| `Cc1csc2c(=O)n3c(nc12)CCN(C(=O)c1ccccn1)CC3` | -40.28% | 20.61% & -0.6058% |
| `CCCn1nc2c(cc1=O)CN(Cc1nc(-c3ccco3)no1)CC2` | - | 26.64% |
| `COc1ccc2c(c1)OCC(CNC1CCc3ncnn3C1)=C2` (stereo unspecified) | -38.11% | 28.21% |
| `[H][C@]12CC[C@]([H])(CN(C(=O)c3ccc(C)nc3)C1)N(Cc1ccccc1)C2` | -23.31% | 40.29% |
| `CCc1cc(C(=O)N2CCC(Nc3ccc(C)nn3)CC2)sc1C` | -10.27% | 16.02% |
| `COC(=O)c1cccc(CNC(=O)c2cc(C(C)C)n(C)n2)c1` | -9.653% | -2.097% |
| `O=C(CN1CCCC1CC(=O)c1ccccc1)NCc1ccccn1` (stereo unspecified) | -10.72% | -4.409% |
| `CCc1nnc2n1CCN(CC(=O)Nc1cc(C(C)(C)C)nn1C)C2` | -35.22% | -17.45% |
| `CN(C)CCN(Cc1cccnc1)C(=O)c1ccn(-c2ccccc2)n1` | -19.27% | 5.03% |
| `O=C(CCn1c(C(F)F)cc2cccnc21)NC1CCCC1` | -8.872% | -9.661% |
| `Cc1nc(C2(O)CCCNCC2)sc1CCOc1ccccc1.Cl` (stereo unspecified) | 41.97% | 4.476% |
| `Cc1nnsc1CNC(=O)c1ccc2c(c1)nc(N1CCOCC1)n2C` | -19.27% | 6.088% |
| `Cc1ccc(Br)cc1NC(=O)NC1CCC2(C1)OCCO2` (stereo unspecified) | -63.3% | 23.67% |
| `CCc1nc(C)c(C(=O)N2CCCC(c3noc(C)n3)C2)s1` (stereo unspecified) | -36.76% | -42.75% |